In the supplement of paper PMC11006884:
Most of the targets with a hit are listed elsewhere, so they are rarer here than in the full data. This is a noisy data set. The list shows a part of the results, in another mix than the full data.

Compound: COC(=O)/C=C/c1ccccc1 [methyl cinnamate]
Assay: log2 ratio of iodoacetamide-alkyne labeling of the cysteine site, DMSO over compound (competition); higher = stronger covalent engagement of the cysteine by the compound, active = 1 or more
Settings: 500 µM; treatment time 1 h; system: HEK293T cell lysate
In short: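 For each cysteine, the log2 competition ratio is mean control-channel reporter intensity over mean compound-channel reporter intensity. HEK293T lysate (2 mg/mL) was exposed to vehicle or electrophile (500 µM, 1 h, ambient temperature), labelled with iodoacetamide alkyne (1 h), clicked to sCIP-TMT reagents, digested overnight with trypsin at 37 °C, streptavidin-enriched and analysed by Orbitrap Eclipse LC-MS/MS with FAIMS and FragPipe. Cysteines quantified in only one of three replicates, each with duplicate channels, were excluded.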

OSBPL3 C520 (UniProt Q9H4L5)
log2 ratio of iodoacetamide-alkyne labeling: inactive: -0.0227

CD320 C67 (UniProt Q9NPF0)
log2 ratio of iodoacetamide-alkyne labeling: inactive: 0.336

XPO5 C1052 (UniProt Q9HAV4)
log2 ratio of iodoacetamide-alkyne labeling: inactive: -0.00576

ZNF277 C215 (UniProt Q9NRM2)
log2 ratio of iodoacetamide-alkyne labeling: inactive: 0.0889

XAB2 C86 (UniProt Q9HCS7)
log2 ratio of iodoacetamide-alkyne labeling: inactive: -0.309

CENPH C35 (UniProt Q9H3R5)
log2 ratio of iodoacetamide-alkyne labeling: inactive: 0.316

MBNL1 C43 (UniProt Q9NR56)
log2 ratio of iodoacetamide-alkyne labeling: inactive: 0.305

MDN1 C4345 (UniProt Q9NU22)
log2 ratio of iodoacetamide-alkyne labeling: inactive: -0.11

FAM83D C19 (UniProt Q9H4H8)
log2 ratio of iodoacetamide-alkyne labeling: inactive: 0.478

CHD8 C752 (UniProt Q9HCK8)
log2 ratio of iodoacetamide-alkyne labeling: inactive: -0.0596

JMJD4 C101 (UniProt Q9H9V9)
log2 ratio of iodoacetamide-alkyne labeling: inactive: 0.326

SMC4 C190 (UniProt Q9NTJ3)
log2 ratio of iodoacetamide-alkyne labeling: inactive: 0.0701

EHD1 C138 (UniProt Q9H4M9)
log2 ratio of iodoacetamide-alkyne labeling: inactive: 0.0616

BAZ1A C893 (UniProt Q9NRL2)
log2 ratio of iodoacetamide-alkyne labeling: inactive: 0.399

OLA1 C55 (UniProt Q9NTK5)
log2 ratio of iodoacetamide-alkyne labeling: inactive: 0.215

OSBPL3 C203 (UniProt Q9H4L5)
log2 ratio of iodoacetamide-alkyne labeling: inactive: 0.299

BRD7 C338 (UniProt Q9NPI1)
log2 ratio of iodoacetamide-alkyne labeling: inactive: 0.244

RNPEP C254 (UniProt Q9H4A4)
log2 ratio of iodoacetamide-alkyne labeling: inactive: -0.0451

WDR54 C18 (UniProt Q9H977)
log2 ratio of iodoacetamide-alkyne labeling: inactive: 0.0845

DDX21 C378 (UniProt Q9NR30)
log2 ratio of iodoacetamide-alkyne labeling: inactive: 0.0722

CCDC86 C116 (UniProt Q9H6F5)
log2 ratio of iodoacetamide-alkyne labeling: inactive: 0.382

HEATR1 C1237 (UniProt Q9H583)
log2 ratio of iodoacetamide-alkyne labeling: inactive: -0.0185

LANCL2 C169 (UniProt Q9NS86)
log2 ratio of iodoacetamide-alkyne labeling: inactive: 0.267

YTHDC2 C25 (UniProt Q9H6S0)
log2 ratio of iodoacetamide-alkyne labeling: inactive: 0.335

STRN4 C17 (UniProt Q9NRL3)
log2 ratio of iodoacetamide-alkyne labeling: inactive: 0.228

UniProt Q9H3N1_C106
log2 ratio of iodoacetamide-alkyne labeling: inactive: -0.36

GOLPH3L C70 (UniProt Q9H4A5)
log2 ratio of iodoacetamide-alkyne labeling: inactive: 0.151

CXorf56 C11 (UniProt Q9H5V9)
log2 ratio of iodoacetamide-alkyne labeling: inactive: 0.175

GBA2 C311 (UniProt Q9HCG7)
log2 ratio of iodoacetamide-alkyne labeling: inactive: 0.0243

OSGEPL1 C356 (UniProt Q9H4B0)
log2 ratio of iodoacetamide-alkyne labeling: inactive: 0.236

WNK1 C547 (UniProt Q9H4A3)
log2 ratio of iodoacetamide-alkyne labeling: inactive: 0.0377

FARSB C548 (UniProt Q9NSD9)
log2 ratio of iodoacetamide-alkyne labeling: inactive: -0.0162

DDX31 C286 (UniProt Q9H8H2)
log2 ratio of iodoacetamide-alkyne labeling: inactive: 0.105

STARD7 C302 (UniProt Q9NQZ5)
log2 ratio of iodoacetamide-alkyne labeling: inactive: -0.397

TUBB1 C12 (UniProt Q9H4B7)
log2 ratio of iodoacetamide-alkyne labeling: inactive: 0.147

SARS2 C64 (UniProt Q9NP81)
log2 ratio of iodoacetamide-alkyne labeling: inactive: 0.0544

UniProt Q9HAU4_C293
log2 ratio of iodoacetamide-alkyne labeling: inactive: -0.059
